From publication doi:10.1101/2021.10.26.465893
Results are given in words; binding and its absence hold for the method and conditions named. In cells and extracts the contact can be indirect. Some binding calls cover weakened binding; strength is not graded here. Tags and fused reporters may be left off the sequences shown.

Legend:
[1] = target: T1, Flag-tagged IRF3 (human IRF3) (human) (UniProt Q14653); assay: co-IP
T1 sequence: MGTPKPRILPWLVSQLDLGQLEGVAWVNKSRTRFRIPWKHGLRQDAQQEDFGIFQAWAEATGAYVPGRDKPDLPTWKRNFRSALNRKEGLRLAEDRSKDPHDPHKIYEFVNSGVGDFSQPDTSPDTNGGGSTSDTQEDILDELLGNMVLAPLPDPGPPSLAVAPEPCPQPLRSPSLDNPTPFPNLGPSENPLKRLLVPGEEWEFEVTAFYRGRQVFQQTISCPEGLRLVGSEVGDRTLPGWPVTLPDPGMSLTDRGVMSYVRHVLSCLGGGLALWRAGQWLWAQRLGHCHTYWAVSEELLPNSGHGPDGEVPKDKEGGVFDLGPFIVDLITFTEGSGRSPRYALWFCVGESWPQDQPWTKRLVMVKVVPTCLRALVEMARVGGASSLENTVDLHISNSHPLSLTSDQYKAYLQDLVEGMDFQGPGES

[2] = target: T2, Myc-tagged hDDX18 (human) (UniProt Q9NVP1); assay: co-IP
T2 sequence: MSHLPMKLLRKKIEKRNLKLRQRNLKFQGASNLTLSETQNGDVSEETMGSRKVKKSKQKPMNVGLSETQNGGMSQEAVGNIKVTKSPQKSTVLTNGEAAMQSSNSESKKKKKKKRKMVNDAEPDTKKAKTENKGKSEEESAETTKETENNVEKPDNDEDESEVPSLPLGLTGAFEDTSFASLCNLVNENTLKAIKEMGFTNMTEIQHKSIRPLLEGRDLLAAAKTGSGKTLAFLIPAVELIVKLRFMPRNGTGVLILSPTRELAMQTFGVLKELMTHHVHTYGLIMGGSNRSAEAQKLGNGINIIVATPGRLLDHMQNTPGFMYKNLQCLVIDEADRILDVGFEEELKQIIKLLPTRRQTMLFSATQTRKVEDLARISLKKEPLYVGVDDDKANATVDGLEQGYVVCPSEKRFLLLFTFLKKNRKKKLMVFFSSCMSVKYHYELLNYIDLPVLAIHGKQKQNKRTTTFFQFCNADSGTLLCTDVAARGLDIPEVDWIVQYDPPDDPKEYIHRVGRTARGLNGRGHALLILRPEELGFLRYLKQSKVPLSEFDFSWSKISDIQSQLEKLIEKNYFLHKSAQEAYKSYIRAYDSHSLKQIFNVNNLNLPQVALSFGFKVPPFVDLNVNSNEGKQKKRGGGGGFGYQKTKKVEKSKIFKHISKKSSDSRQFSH

B1: Myc-tagged hDDX18 (protein, UniProt Q9NVP1 1-670)
chain: T2 sequence
binding [1]: binds

B2: Flag-tagged IRF3 (human IRF3) (protein, UniProt Q14653 1-427)
chain: T1 sequence
binding [2]: binds
